Results are given in words; binding and its absence hold for the method and conditions named. Binding seen in cells or lysates may run through a third protein. A yes stands for co-enrichment or nearness to the bait. Other partners may have been found. Sequences can lack the tags named with a protein.

Chains of the proteins cited; added tags and fusions are not shown.
UniProt Q13547: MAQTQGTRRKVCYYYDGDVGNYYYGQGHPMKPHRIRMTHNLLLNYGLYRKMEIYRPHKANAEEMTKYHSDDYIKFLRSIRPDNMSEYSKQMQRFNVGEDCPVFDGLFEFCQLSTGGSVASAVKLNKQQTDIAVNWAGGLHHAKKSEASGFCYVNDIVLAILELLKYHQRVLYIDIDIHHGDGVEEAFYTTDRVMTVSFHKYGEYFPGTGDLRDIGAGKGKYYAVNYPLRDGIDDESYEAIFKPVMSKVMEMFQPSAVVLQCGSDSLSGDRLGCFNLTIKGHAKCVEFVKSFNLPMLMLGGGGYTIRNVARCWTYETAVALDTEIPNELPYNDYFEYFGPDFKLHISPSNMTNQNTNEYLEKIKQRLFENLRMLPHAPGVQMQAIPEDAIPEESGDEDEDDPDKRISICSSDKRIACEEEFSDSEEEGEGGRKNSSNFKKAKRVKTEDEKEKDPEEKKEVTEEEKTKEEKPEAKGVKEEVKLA

The assay addresses T1, PFKL (endogenous or tagged not stated; immunoprecipitates for mass spectrometry, co-IP of the PFK isoforms, purified PFKL added to HDAC1) (human) (UniProt P17858).
T1 sequence: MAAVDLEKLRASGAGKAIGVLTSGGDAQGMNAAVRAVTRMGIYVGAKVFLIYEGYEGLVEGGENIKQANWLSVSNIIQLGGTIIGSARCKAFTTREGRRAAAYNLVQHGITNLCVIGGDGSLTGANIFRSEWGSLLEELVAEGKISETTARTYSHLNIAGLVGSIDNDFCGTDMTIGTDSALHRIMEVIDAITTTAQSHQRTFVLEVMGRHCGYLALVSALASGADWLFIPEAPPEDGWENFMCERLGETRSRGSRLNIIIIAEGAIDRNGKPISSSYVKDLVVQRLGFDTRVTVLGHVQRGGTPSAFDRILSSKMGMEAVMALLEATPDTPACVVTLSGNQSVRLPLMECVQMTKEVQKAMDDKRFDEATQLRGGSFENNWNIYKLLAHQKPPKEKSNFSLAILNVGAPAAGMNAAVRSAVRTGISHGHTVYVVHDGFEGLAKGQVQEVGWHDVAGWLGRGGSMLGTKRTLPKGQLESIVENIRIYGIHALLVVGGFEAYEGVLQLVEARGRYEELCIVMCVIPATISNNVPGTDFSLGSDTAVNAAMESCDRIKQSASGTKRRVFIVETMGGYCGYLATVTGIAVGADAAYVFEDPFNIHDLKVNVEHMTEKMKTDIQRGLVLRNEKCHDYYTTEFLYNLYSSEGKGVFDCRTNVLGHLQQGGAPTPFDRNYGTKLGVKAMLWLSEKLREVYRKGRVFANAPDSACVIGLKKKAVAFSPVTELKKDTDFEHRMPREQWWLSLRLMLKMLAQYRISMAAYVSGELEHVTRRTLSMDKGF
The assay can be described thus: affinity purification with mass spectrometry; mass spectrometry of PFKL immunoprecipitates.

In the case of “HDAC1 (endogenous or tagged not stated; immunoprecipitates for mass spectrometry and co-IP with the PFK isoforms) (from UniProt Q13547 1-482) (enzyme)”, the binding entry is recorded as “binds”.

These data come from PMC12518634, “The noncanonical function of liver-type phosphofructokinase potentiates the efficacy of HDAC inhibitors in cancer” (Signal Transduction and Targeted Therapy, 2025).
